The subject of the assay is CD2F1 mice, L1210 leukemia ip, survival T/C. The experiment in a line: NCI In Vivo Anticancer Drug Screen. Data for tumor model L1210 Leukemia (intraperitoneal) in CD2F1 (CDF1) mice. As to conditions: higher T/C = longer survival. The method, boiled down:
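Antitumor effect is scored in animals hosting a serially transplanted tumor. Values compare compound-dosed animals against vehicle-only controls as a simple quotient.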

[1] abbreviates: T/C endpoint: mean survival time, dose: 400.0 mg/kg/injection, schedule: Q04DX002 (ip), vehicle: saline with Tween-80.
Where [2] appears, read: T/C endpoint: mean survival time, dose: 400.0 mg/kg/injection, schedule: Q01DX009 (ip), vehicle: water.
The mark [3] stands for this setting: T/C endpoint: mean survival time, dose: 200.0 mg/kg/injection, schedule: Q01DX009 (ip), vehicle: saline with Tween-80.
Setting [4] is: T/C endpoint: mean survival time, dose: 25.0 mg/kg/injection, schedule: Q01DX009 (ip), vehicle: saline with Tween-80.
The mark [5] stands for this setting: T/C endpoint: mean survival time, dose: 100.0 mg/kg/injection, schedule: Q01DX009 (ip), vehicle: saline with Tween-80.
Setting [6] is: T/C endpoint: mean survival time, dose: 200.0 mg/kg/injection, schedule: Q04DX003 (ip), vehicle: saline with Tween-80.
Where [7] appears, read: T/C endpoint: mean survival time, dose: 400.0 mg/kg/injection, schedule: Q04DX003 (ip), vehicle: saline with Tween-80.
The mark [8] stands for this setting: T/C endpoint: mean survival time, dose: 40.0 mg/kg/injection, schedule: Q01DX001 (ip), vehicle: saline.
[9] abbreviates: T/C endpoint: mean survival time, dose: 75.0 mg/kg/injection, schedule: Q01DX001 (ip), vehicle: saline.
The mark [10] stands for this setting: T/C endpoint: mean survival time, dose: 80.0 mg/kg/injection, schedule: Q01DX001 (ip), vehicle: saline.
Where [11] appears, read: T/C endpoint: mean survival time, dose: 150.0 mg/kg/injection, schedule: Q01DX001 (ip), vehicle: saline.
[12] abbreviates: T/C endpoint: mean survival time, dose: 300.0 mg/kg/injection, schedule: Q01DX001 (ip), vehicle: saline.
[13] abbreviates: T/C endpoint: mean survival time, dose: 400.0 mg/kg/injection, schedule: Q01DX001 (ip), vehicle: saline with Tween-80.
Where [14] appears, read: T/C endpoint: mean survival time, dose: 100.0 mg/kg/injection, schedule: Q04DX003 (ip), vehicle: saline with Tween-80.
Where [15] appears, read: T/C endpoint: mean survival time, dose: 400.0 mg/kg/injection, schedule: Q01DX009 (ip), vehicle: saline with Tween-80.

The list shows only some results of the screen, not a fair sample: it gathers tests that were run many times, whatever their T/C, doses with no T/C, and many T/C values between a quarter and a half above the control. Other doses and runs of a compound stand elsewhere. T/C is the treated group as % of the vehicle group. Some doses have a count of surviving animals in place of a T/C: the source files T/C as zero there, which appears to mark a toxic dose or a test without result, not a measured value. Some survivor counts are full or nearly so, which does not show that the dose was tolerated: survival well below the control is almost never listed, so the zero probably covers shortened survival too. Counts of survivors are from the toxicity check (mostly the fifth day) where no day follows; animals may have died later. Schedules are NCI's codes, read here as Q, the interval in days (D) or hours (H), X, the number of doses. Some entries hold several experiments; the results are listed from low to high. Where survival is the endpoint, this PubChem deposit counts one and a half times the control or more as active, and values a quarter to a half above the control carry no call in these data; other NCI protocols may use other cut-offs.

On to `c1ccc(Sc2ccncc2)cc1`, for which the survivor count runs as follows: (T/C endpoint: mean survival time, dose: 200.0 mg/kg/injection, schedule: Q04DX002 (ip), vehicle: saline with Tween-80) 1 of 3; under setting [1], 0 of 3.

On to `Cc1ccc(S(=O)(=O)NN=C(c2ccccc2)c2ccccc2)cc1`, for which the survivor count under setting [2] is 5 of 6.

In the case of `S=C(Nc1ccccc1)Nc1ccc(NC(=S)Nc2ccccc2)cc1`, the survivor count under setting [3] is 6 of 6.

`CN(Cc1c[nH]c2nc(N)nc(N)c2c1=O)c1ccc(C(=O)NC(CCC(=O)O)C(=O)O)cc1` (stereo unspecified): the T/C (T/C endpoint: mean survival time, dose: 8.0 mg/kg/injection, schedule: Q01DX005 (ip), vehicle: sodium bicarbonate) is 127 % of control.

In the case of `O=C(O)COc1cc(Cl)c(Cl)cc1Cl` (tested in a mixture with another compound), the survivor count under setting [1] is listed as 0 of 3.

In the case of `O=C1CNC(=O)N1CN1CCOCC1`, the survivor count (T/C endpoint: median survival time, dose: 800.0 mg/kg/injection, schedule: Q01DX009 (ip), vehicle: Klucel (hydroxypropylcellulose) (HPC)) is reported as 1 of 6.

Take `[N-]=[N+]=CC(=O)CCC(NC(=O)OCc1ccccc1)C(=O)OCc1ccccc1` (stereo unspecified): the T/C was 138 % of control (T/C endpoint: median survival time, dose: 12.5 mg/kg/injection, schedule: Q01DX009 (ip), vehicle: Klucel (hydroxypropylcellulose) (HPC)); 101, 130, 162, 164 % of control (T/C endpoint: median survival time, dose: 25.0 mg/kg/injection, schedule: Q01DX009 (ip), vehicle: Klucel (hydroxypropylcellulose) (HPC)); 105, 115, 131, 138 % of control (T/C endpoint: median survival time, dose: 50.0 mg/kg/injection, schedule: Q01DX009 (ip), vehicle: Klucel (hydroxypropylcellulose) (HPC)); 90, 94, 105, 178 % of control (T/C endpoint: median survival time, dose: 100.0 mg/kg/injection, schedule: Q01DX009 (ip), vehicle: Klucel (hydroxypropylcellulose) (HPC)). For the same compound, the survivor count (T/C endpoint: median survival time, dose: 400.0 mg/kg/injection, schedule: Q01DX009 (ip), vehicle: Klucel (hydroxypropylcellulose) (HPC)) is 5 of 6 and 6 of 6.

Consider `CC1(C)N=C(N)N=C(N)N1c1ccc(CCCCc2ccc(Cl)cc2Cl)cc1`, for which, under setting [4], the survivor count is recorded as 4 of 6.

As to `Nc1ccccc1Nc1ccncc1`, the survivor count is reported as 1 of 6 under setting [5], 3 of 6 under setting [6] and 2 of 6 under setting [7].

With `CCN(CC)c1cccc(OC(=O)NC)c1`, the survivor count by setting is: under setting [8], 0 of 6; under setting [9], 1 of 6; under setting [10], 0 of 6; under setting [11], 0 of 6; under setting [12], 0 of 6.

Regarding `CCN(CC)CCN(C)N=Nc1ccccc1C(=O)NN`, the survivor count reads like this: (T/C endpoint: mean survival time, dose: 290.0 mg/kg/injection, schedule: Q01DX001 (ip), vehicle: saline) 1 of 6; (T/C endpoint: mean survival time, dose: 580.0 mg/kg/injection, schedule: Q01DX001 (ip), vehicle: saline) 0 of 6.

In the case of `O=C1CC2CC1C1C3CCC(CC3)C21` (stereo unspecified), the survivor count was 0 of 3 under setting [4] and 0 of 3 (T/C endpoint: mean survival time, dose: 50.0 mg/kg/injection, schedule: Q01DX009 (ip), vehicle: saline with Tween-80).

Regarding `Cc1ccc(Nc2c3ccccc3nc3ccccc23)cc1`, the T/C (T/C endpoint: mean survival time, dose: 75.0 mg/kg/injection, schedule: Q04DX003 (ip), vehicle: other) is 137 % of control. In addition, the survivor count (T/C endpoint: mean survival time, dose: 150.0 mg/kg/injection, schedule: Q04DX003 (ip), vehicle: saline with Tween-80) is given as 4 of 6.

In the case of `CC/C=C/CC(=O)NCc1ccc(O)c(OC)c1`, the survivor count under setting [13] was 0 of 6.

Take `COc1cccc(C(=O)c2ccncc2)c1OC`: the survivor count (T/C endpoint: mean survival time, dose: 50.0 mg/kg/injection, schedule: Q01DX009 (ip), vehicle: water) was 6 of 6 and the survivor count under setting [2] is reported as 3 of 6.

As to `COCC/C(COC)=N\N=C(/CCOC)COC`, the survivor count (T/C endpoint: mean survival time, dose: 400.0 mg/kg/injection, schedule: Q01DX009 (ip), vehicle: saline) is 1 of 6.

For the compound `CCC1(O)C(=O)OCc2c1cc1n(c2=O)Cc2cc3ccc([N+](=O)[O-])cc3nc2-1` (stereo unspecified), the T/C is 125 % of control (T/C endpoint: median survival time, dose: 20.0 mg/kg/injection, schedule: Q04DX002 (ip), vehicle: saline with Tween-80); 133 % of control (T/C endpoint: median survival time, dose: 40.0 mg/kg/injection, schedule: Q04DX002 (ip), vehicle: saline with Tween-80); 147 % of control (T/C endpoint: median survival time, dose: 80.0 mg/kg/injection, schedule: Q04DX002 (ip), vehicle: saline with Tween-80).

For the compound `COC(=O)c1cncn1C(C)c1cccc2ccccc12` (stereo unspecified), the survivor count under setting [7] is 4 of 6.

`CN(Cc1ccccc1)/C(N)=N/N`: under setting [12], the survivor count was 2 of 6.

In the case of `CCCCCn1c(C)cc(/C=C\c2ccc3cc(C)ccc3[n+]2C)c1C`, the survivor count is 2 of 6 (T/C endpoint: mean survival time, dose: 2.5 mg/kg/injection, schedule: Q01DX009 (ip), vehicle: Klucel (hydroxypropylcellulose) (HPC)); 0 of 6 (T/C endpoint: mean survival time, dose: 5.0 mg/kg/injection, schedule: Q01DX009 (ip), vehicle: Klucel (hydroxypropylcellulose) (HPC)); 0 of 6 (T/C endpoint: mean survival time, dose: 10.0 mg/kg/injection, schedule: Q01DX009 (ip), vehicle: Klucel (hydroxypropylcellulose) (HPC)); 0 of 6 (T/C endpoint: mean survival time, dose: 20.0 mg/kg/injection, schedule: Q01DX009 (ip), vehicle: Klucel (hydroxypropylcellulose) (HPC)).

Consider `C#CC(O)C(CC)CCCC` (stereo unspecified), for which the survivor count under setting [3] was 4 of 6.

As to `Cc1ccc2c(ccc(/C=C/c3ccc(O)c4ncccc34)[n+]2C)c1`, the survivor count is on record as 2 of 6 under setting [5]; 1 of 6 under setting [3]; 6 of 6 under setting [6]; 2 of 6 under setting [15]; 6 of 6 under setting [7]. Moreover, the T/C under setting [14] is 125 % of control.

As to `COc1cc(OC)c(NC(=O)Nc2cccc(SC)c2)cc1Cl`, the survivor count under setting [3] is on record as 3 of 3.

On to `CC(C#N)(Nc1ccccc1)c1ccc(Cl)cc1` (stereo unspecified), for which the survivor count is on record as 6 of 6 under setting [5], 6 of 6 under setting [14] and 3 of 6 under setting [7].

On to `Nc1nc(N)c2cc(CNc3ccc(C(=O)NC(CC(=O)O)C(=O)O)c(Cl)c3)ccc2n1` (stereo unspecified), for which the T/C (T/C endpoint: mean survival time, dose: 2.5 mg/kg/injection, schedule: Q01DX001 (ip), vehicle: saline) was 127 % of control; the T/C (T/C endpoint: mean survival time, dose: 9.0 mg/kg/injection, schedule: Q01DX001 (ip), vehicle: saline) is 146 % of control; the T/C (T/C endpoint: mean survival time, dose: 10.0 mg/kg/injection, schedule: Q01DX001 (ip), vehicle: saline) is 143 % of control; the T/C (T/C endpoint: mean survival time, dose: 13.0 mg/kg/injection, schedule: Q01DX001 (ip), vehicle: saline) is 146 % of control; the T/C (T/C endpoint: mean survival time, dose: 30.0 mg/kg/injection, schedule: Q01DX001 (ip), vehicle: saline) was 141 % of control. Moreover, the survivor count reads like this: under setting [8], 5 of 6; under setting [9], 5 of 6; under setting [10], 6 of 6; under setting [11], 1 of 6; under setting [12], 3 of 6.

`C#CCCCOC(=O)Nc1ccccc1`: the survivor count (T/C endpoint: mean survival time, dose: 400.0 mg/kg/injection, schedule: Q04DX003 (ip), vehicle: Klucel (hydroxypropylcellulose) (HPC)) was 1 of 6.

Take `O=P(CCC(O)c1ccccc1)(c1ccccc1)c1ccccc1` (stereo unspecified): the survivor count by setting is: under setting [3], 3 of 6; under setting [7], 3 of 6.

Consider `O=C(OC12CCCC1CC2)c1ccc([N+](=O)[O-])cc1` (stereo unspecified), for which, under setting [15], the survivor count is 6 of 6.

`CC1(C)N=C(N)N=C(N)N1c1ccc(OCCCCNC(=O)Nc2ccc(S(=O)(=O)F)cc2)c(Cl)c1`: the survivor count is, setting by setting: (T/C endpoint: mean survival time, dose: 200.0 mg/kg/injection, schedule: Q01DX001 (ip), vehicle: saline with Tween-80) 0 of 6; under setting [13], 0 of 6.

In the case of `O=C1NC(=O)C2(CCc3ccc(N(CCCl)CCCl)cc32)N1` (stereo unspecified), the T/C (T/C endpoint: mean survival time, dose: 12.5 mg/kg/injection, schedule: Q01DX009 (ip), vehicle: Klucel (hydroxypropylcellulose) (HPC)) is 126 % of control.

As to `CC([NH-])C[NH-].[Na+].[O]=[Co][O-]` (stereo unspecified), the survivor count is, setting by setting: under setting [9], 3 of 6; under setting [11], 2 of 6; under setting [12], 0 of 6.
